The numbers were not newly measured in publication PMC2751796 (Pharmacology & therapeutics, 2009), which cites them from elsewhere.

For the data set, the system named is MRPs, organic anion transporters. The following applies: rats; ref Tunblad et al., 2003; cited from earlier work.

Take `CN1CC[C@]23c4c5ccc(O)c4O[C@H]2[C@@H](O)C=C[C@H]3[C@H]1C5` [Morphine]: the “Increase of steady-state brain-to-blood ratio with probenecid” value was 1.3 fold.
